Hit rate of the full screen: of about 1,300 compounds, about 270 (21%) were called active.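 How the source made its calls: active means dose-dependent rise or fall in viability, either side of zero, with half-maximal concentration at or below a set limit; inconclusive means flat curve at 30 to 70% viability loss, or poor fit; inactive means flat within 30% either way, or potency beyond limit.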 Some of the results follow. Results with a measured potency or affinity are listed apart.
experiment: A375 melanoma cell viability reduction, dose response, counter-screen for MITF modulator project, cherry-pick samples, set 2 (AID 540335); conditions: CellTiter-Glo ATP luminescence, 24 h; at 35 µM (top of the series);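 further: A375 human melanoma cells which do not depend on MITF; 0% = median of neutral control wells and 100% = double that signal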

Structure (SMILES) | activity change, negative = decreased viability
CCOC(=O)Cn1c(=NC(=O)c2ccc([N+](=O)[O-])s2)sc2ccccc21 | inactive: -12.7%
COc1ccc(-c2csc(N(C)C(=O)c3ccco3)n2)cc1 | inactive: 0.973%
CCn1nccc1C(=O)Nc1ccc(C)c(C)c1 | inactive: -8.74%
O=C(NC1CC1)C1CCN(S(=O)(=O)c2ccc(Cl)c([N+](=O)[O-])c2)CC1 | inactive: -0.978%
N#CCSc1nc2ccccc2c2nc3ccccc3n12 | inactive: 0.942%
COc1cc(CN2CCC(Cc3ccccc3)CC2)cc(OC)c1OC | inactive: -6.84%
O=C(CNC(=O)c1cccc(F)c1)N/N=C/c1ccc([N+](=O)[O-])s1 | inactive: -17.1%
COc1ccc(/C=N/Nc2cc(C)nc(-n3nc(C)cc3C)n2)c(OC)c1 | inactive: -25.2%
Cc1ccc(C(=O)c2cccc(N)c2)cc1C | inactive: 11.7%
Nc1ccc(Oc2cccc(Oc3ccc(N)cc3)c2)cc1 | inactive: 5.47%
CC(=O)SC(C[N+](=O)[O-])c1cn(C(C)=O)c2ccccc12 (stereo not given) | inactive: 22.6%
COc1ccc(NS(=O)(=O)c2cc(NC(=O)CNC(=O)c3cccc(OC)c3)ccc2C)cc1 | inactive: 12.3%
O=C(COC(=O)CCN1C(=O)/C(=C\C=C\c2ccccc2)SC1=S)Nc1cc(F)ccc1F | inactive: 0.586%
Cc1cccc2sc(N(CCCN(C)C)C(=O)c3nc4ccccc4s3)nc12 | inactive: -16.6%
O=C(Nc1ccc(OC(F)(F)F)cc1)c1[nH]ncc1[N+](=O)[O-] | inactive: -1.08%
COc1cc2c(cc1OC)C(SC)=NC1(CCCC1)C2 | inactive: -6.14%
C/C(=N\NC(=O)Cc1ccc(Cl)cc1)c1ccccn1 | inactive: -24%
CCCCC(=O)N/C(N)=N/c1nc2ccccc2o1 | inactive: -7.02%
Cc1ccccc1OCC(=O)N/N=C/c1ccc([N+](=O)[O-])o1 | inactive: -16.2%
O=C(CCl)N1c2ccccc2SCC1c1ccccc1 (stereo not given) | inactive: -37%

Structure (SMILES) | activity change, negative = decreased viability
CCC[n+]1c(C)sc2c3c(ccc21)CCCC3 | inactive: -27.6%
CCN1CCc2c(sc(NC(=O)c3ccc(S(=O)(=O)N4CCCC4)cc3)c2C(=O)NC)C1 | inactive: -9.91%
CC1CN(C(=O)CCC(=O)NCCCN2CCC(Cc3ccccc3)CC2)c2cc(Cl)ccc2O1 (stereo not given) | inactive: -37.2%
Cn1cccc1-c1cc(C(=O)N/N=C/c2cc(Br)ccc2O)[nH]n1 | inactive: -30%
Cc1ccc2c(COC(=O)c3n[nH]c4ccccc34)cc(=O)oc2c1 | inactive: 8.63%
CC(C)(C)C(=O)Nc1cc2nn(-c3ccccc3)nc2cc1Cl | inactive: -8.34%
Cc1cc(C)c2c(N)c(C(=O)Nc3ncc(C)s3)sc2n1 | inactive: -18.7%
Cc1occc1C(=O)N/N=C/c1ccc(OCc2ccccc2)cc1 | inactive: 7.83%
Cc1ccc(C(=O)c2coc3ccc(O)c(Cl)c23)cc1 | inactive: 28.7%
CN(C)c1ccc(-n2cccc2/C=C/[N+](=O)[O-])cc1 | inactive: -3.05%
O=C(Nc1ccc2ncccc2c1)c1ccccc1Br | inactive: 9.05%
CCOC(=O)c1cc2sccc2n1CC(=O)N1c2ccccc2CC1C (stereo not given) | inactive: -32.3%
COc1ccc(N(C(=O)CCl)C(C(=O)NC2CCCCC2)c2cccnc2)cc1 (stereo not given) | inactive: 46.5%
CC(=O)Nc1nc(C)c(-c2csc(Nc3cccc(C(C)=O)c3)n2)s1 | inactive: -21.3%
Cc1ccc(CC(=O)Nc2ccc(Cl)cn2)cc1 | inactive: 6.23%
N/C(=N\OC(=O)Cc1cccs1)c1ccccc1 | inactive: 6.82%
COc1cc(/C=N/NC(N)=O)c(Br)cc1OCC(=O)Nc1ccccc1C | inactive: -37.4%
COc1cccc(C(=O)Nc2ccc3c(cc2=O)[C@@H](NC(C)=O)CCc2cc(OC)c(OC)c(OC)c2-3)c1 | inactive: -4.06%
Cc1ccc2nc(NC(=O)CSCC(=O)OCC(=O)c3ccccc3)sc2c1 | inactive: -14.9%
CC(C)(C)OC(=O)N1CCN(C(=O)c2nc[nH]c2C(=O)N2CCN(c3ccccc3)CC2)CC1 | inactive: 2.83%

Structure (SMILES) | activity change, negative = decreased viability
COC(=O)c1ccc(/C=C(\C#N)C(=O)NC(C)c2ccccc2)cc1 (stereo not given) | inactive: -0.974%
O=C(COc1ccccc1)N/N=C/c1ccc([N+](=O)[O-])o1 | inactive: -8.29%
C=CCn1cccc(C(=O)Nc2ccc(C)c(Cl)c2)c1=O | inactive: -1.87%
COC1=C(Nc2ccc(O)cc2)C(=O)c2ccccc2C1=O | inactive: -34.3%
COc1cccc(/C=N/Nc2nc3ccccc3[nH]2)c1OC | inactive: 9.81%
O=Cc1ccc(N2Cc3ccccc3C2)cc1 | inactive: 0.449%
COc1ccccc1-c1cc(C(F)(F)F)nc(S(C)(=O)=O)n1 | inactive: -3.05%
Cc1c(NC(=O)c2ccc([N+](=O)[O-])o2)cccc1-c1nc2ncccc2o1 | inactive: -3.64%
NNC(=O)Cn1c(SCc2ccccc2)nc2ccccc21 | inactive: -2.53%
Cn1c(COc2ccccc2)nc2ccccc21 | inactive: 5.66%
CCOC(=O)CSc1nc2cc(OCC)ccc2cc1C#N | inactive: 7.09%
Oc1cc(NCc2cccnc2)ccc1-c1nc2ccccc2o1 | inactive: -5.26%
CCCc1ccc(-c2ccc(/C=C/C(=O)O)cc2)nc1 | inactive: 6.8%
Cc1ccc(NC(=O)c2ccc([N+](=O)[O-])o2)cc1S(=O)(=O)N1CCOCC1 | inactive: 13.3%
COc1ccc(N/C=C\C(=O)c2ccc3ccccc3c2)cc1 | inactive: 15.8%
CC1=NC(=O)C(N=Nc2cccc(C(=O)O)c2)N1c1ccccc1 (stereo not given) | inactive: -0.293%
CCN1CCc2c(sc(NC(=O)c3ccc(S(=O)(=O)N4CCCCCC4)cc3)c2C(=O)NC)C1 | inactive: -9.09%
CC(C)C(=O)N1CCN(c2ccc(NC(=O)c3ccc([N+](=O)[O-])o3)cc2)CC1 | inactive: 17.6%
Cc1ccc(C(=O)c2no[n+]([O-])c2C(=O)c2ccc(C)cc2)cc1 | inactive: -8.72%
CC(C)(C)C(=O)/C(=C/c1ccncc1)n1cncn1 | inactive: 7.09%

From PubChem BioAssay AID540335 (Broad Institute, 2011)
